Results deposited as PubChem BioAssay AID1159578 (Peter MacCallum Cancer Centre, 2015).
Assay: 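Genome-wide hunt for genes controlling movement of lymphatic endothelial cells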 (primary screen). System: human lymphatic endothelial cells. Knock-down reagent: siRNA pool against human genes, 40 nM. Duration: 48 h after transfection. Measurement: 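High-content imaging of dye-stained cells in a scratch assay measures filled wound area and nuclei per well; duplicate means given as ratio to mock and robust z-score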. Reading the numbers: migration robust z-score: higher = faster migration into the scratch; nuclei per well: higher = more cells in the well. Hit rule: 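Migration changed when robust z exceeds 2 or falls below -2 and mean nuclei number is at least 3300; otherwise not called changed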. Meaning of the calls: active = migration changed; inactive = no migration change, or too few cells.
This is an unselected part of about 18,000 reagents tested. About 1,030 of them (5.7%) count as active. 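Inactive calls also include pools with fewer than 3300 nuclei, whose migration was not assessed.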 Raw values are not corrected between plates. A number with no mark means an inactive call. Further read-outs or replicates are left out here.

target | migration robust z-score | nuclei per well, duplicate mean
POFUT2 | -0.4 | 5704
RAET1L | 0.24 | 6158
UFD1 | 0.65 | 5116
C17orf75 | -0.37 | 5587
C20orf141 | 0.17 | 6583
SCAMP5 | 0.91 | 5654
DOHH | -0.26 | 5592
DHRS4L2 | -0.45 | 5948
AXL | -2.43 (active) | 5856
RHOT2 | 0.44 | 6724
SNX22 | 0.07 | 5320

Looked up above.
UFD1, migration robust z-score: 0.65
Value of DHRS4L2 in “nuclei per well, duplicate mean”: 5948

The list goes on:
target | migration robust z-score | nuclei per well, duplicate mean
THNSL2 | 1.19 | 5322
DHRS12 | -0.31 | 6028
TMUB2 | 0.48 | 6219
BBOX1 | -1.01 | 5800
TGFBI | 0.44 | 5533
MEX3C | -1.53 | 3540
CLEC4D | -0.38 | 6158
PEA15 | 0.96 | 4859
RASGRP2 | -1.02 | 3484
RIN2 | 0.28 | 5020
SYT15 | -0.64 | 4822
C22orf15 | -1.01 | 4752
